These are yes or no findings as the source states them, for the method shown. Some entries that bind do so weakly or less than the wild type.
Key:
[1] = molecular target: GluN1 on cultured rat hippocampal neurons (rat) (UniProt P35439); assay: immunostaining of fixed cultured rat hippocampal neurons
[2] = molecular target: GluN1 on cultured rat hippocampal neurons (rat) (UniProt P35439); assay: immunostaining of cultured rat hippocampal neurons
[3] = molecular target: GluN1 on cultured rat hippocampal neurons (rat) (UniProt P35439); assay: staining of cultured hippocampal neurons treated with MK-801 or AP5
[4] = molecular target: GluN1 in murine brain (cortex and hippocampus sections) (mouse) (UniProt P35438); assay: immunostaining of floating sections of murine cortex and hippocampus
[5] = molecular target: GluN1 on cultured rat hippocampal neurons (rat) (UniProt P35439); assay: staining of live rat hippocampal neurons, co-stained with commercial anti-GluN1 and anti-PSD-95

Measured: binding

B1: mAb 2G6 (antibody, V domains shown)
VH: QVQLQESGGGVVQPGRSLRLSCAASGFSFNAFAMHWVRQAPGKGLEWVARISHYGSDDYYADSVKGRFTISRDNSQNTLFLQMNSLKAEDTGVYYCWRGFTLVRGVISRNPINRFSGMDVWGQGTTVTVS
VL: SYELMQPPSVSVSPGQTARITCSGDALPKKYAYWYQQKSGQAPILVIYEDNKRPSGIPERFSGSSSGTMATLTISGAQVEDEADYFCYSTDSSGNHGVFGGGTKLTVL
binds: [1] | [2] | [3]

B2: mAb 5F5 (antibody, V domains shown)
VH: QVQLVESGGGVVRPGGSLRLSCAASGFTFSTYSLHWVRQAPGKGLEWVGVILYDGSKKYYADSVRGRFTISRDNSKSTLNLDMSSLRPDDTAVYYCARDPIAVAPRPSGMVPQGFDYWGQGTLVTVSS
VL: QSVVTQPPSASGTPGQRVTISCSGSSSNIGRNFVFWYRQLPGTAPKVLIYKNIQRPSGVPDRISGSRSGSSASLAISGLRSEDEADYYCASWDDSLSGVVFGGGTKLTVL
binds: all assays above

From US20220073611A1
